Patent US8216786B2, “Genetic polymorphisms associated with cardiovascular diseases, methods of detection and uses thereof” (Celera Corporation, priority 2008, dated 2012)
This continues a long series; more values of the same kind are listed elsewhere.

Test system: individuals who have previously had an MI
Test: CARE trial: effect of pravastatin vs placebo on coronary events (endpt1, rmi) by SNP genotype subgroup
Assay type: in vivo, human
Conditions: endpt1
Experimental: In Tables 21-22, the column labeled “Endpoint” indicates whether the endpoint that was analyzed was the primary endpoint of the CARE study (a composite endpoint of fatal coronary event or nonfatal MI, and identified as “endpt1”) or a composite endpoint of confirmed fatal or nonfatal MI (identified as “rmi”). […] As used herein, the term “benefit” (with respect to a preventive or therapeutic drug treatment) is defined as achieving a reduced risk for a disease that the drug is intended to treat or prevent (e.g., CVD such as CHD, particularly MI, or hypertension) by administering the drug treatment, compared with the risk for the disease in the absence of receiving the drug treatment (or receiving a placebo in lieu of the drug treatment) for the same genotype. […] J. […] (1996) New England Journal of Medicine 335: 1001-1009. […] A well-documented MI was one of the enrollment criteria for entry into the CARE study. Patients were enrolled in the CARE trial from 80 participating study centers. […] For the study of CARE described in this Example and shown in Tables 21-22, two endpoints were investigated: the primary endpoint of CARE (a composite endpoint of fatal coronary event or nonfatal MI, and identified as “endpt1” in the Endpoint column of Tables 21-22) and a composite endpoint of confirmed fatal or nonfatal MI (identified as “rmi” in the Endpoint column of Tables 21-22). […] HR stands for Hazard Ratio, which is a concept similar to Odds Ratio (OR). The HR in event-free survival analysis is the effect of an explanatory variable on the hazard or risk of an event. […] In Table 21, p-interaction values were calculated. An interaction (or effect modification) is formed when a third variable modifies the relation between an exposure and outcome. […] Genotype and drug interaction is present when the effect of statins (incidence rate of disease in statin-treated group, as compared to placebo) differs in patients with different genotypes.

[1] = hCV1026586 rs673548 APOB, Strata AA
[2] = hCV1026586 rs673548 APOB, Strata GA + GG
[3] = hCV1239369 rs275982, strata CA + AA
[4] = hCV1243283 rs1716 ITGAE, Strata AA
[5] = hCV1243283 rs1716 ITGAE, Strata AG + GG
[6] = hCV1253630 rs2071307 ELN, Strata AG + AA
[7] = hCV1253630 rs2071307 ELN, Strata GG
[8] = hCV1323634 rs287475, Strata TC + TT
[9] = hCV1323669 rs287354, strata GA + GG
[10] = hCV1345898 rs2230804 CHUK, Strata CC
[11] = hCV1345898 rs2230804 CHUK, Strata CT + TT
[12] = hCV1361979 rs25683 ACAT2, Strata AG + AA
[13] = hCV1361979 rs25683 ACAT2, Strata GG
[14] = hCV1375141 rs1881420 ALK, Strata CC
[15] = hCV1375141 rs1881420 ALK, Strata CT
[16] = hCV1375141 rs1881420 ALK, Strata TT
[17] = hCV1488444 rs10164405, strata TG + GG
[18] = hCV1488444 rs10164405, strata TT
[19] = hCV1489995 rs4013819 LOC392281, strata GC + CC
[20] = hCV1489995 rs4013819 LOC392281, strata GG
[21] = hCV1552894 rs434473 ALOX12, Strata GA + AA
[22] = hCV1552894 rs434473 ALOX12, Strata GG
[23] = hCV1552900 rs1126667 ALOX12, Strata AA
[24] = hCV1552900 rs1126667 ALOX12, Strata AG + GG
[25] = hCV1600754 rs17288671 CXCL9, Strata CC
[26] = hCV1600754 rs17288671 CXCL9, Strata TC + TT
[27] = hCV1603697 rs2229475 HSPG2, Strata CC
[28] = hCV1603697 rs2229475 HSPG2, Strata TC + TT
[29] = hCV1647371 rs3025000 VEGFA, Strata CC
[30] = hCV1647371 rs3025000 VEGFA, Strata TC + TT
[31] = hCV1729928 rs10509384 KCNMA1, strata AG + AA
[32] = hCV1729928 rs10509384 KCNMA1, strata GG
[33] = hCV1741111 rs1764391 C1orf212, Strata TC + CC
[34] = hCV1741111 rs1764391 C1orf212, Strata TT
[35] = hCV1770462 rs12731981 MPL, Strata AG + AA
[36] = hCV1770462 rs12731981 MPL, Strata GG
[37] = hCV1802755 rs7764347 RFXDC1, strata CC
[38] = hCV1802755 rs7764347 RFXDC1, strata CT + TT
[39] = hCV1843175 rs3745535 KLK10, Strata AC + AA
[40] = hCV1843175 rs3745535 KLK10, Strata CC
[41] = hCV1948599 rs504527 CSMD2, strata AA
[42] = hCV1948599 rs504527 CSMD2, strata CA + CC
[43] = hCV2143205 rs9666607 CD44, Strata AA
[44] = hCV2143205 rs9666607 CD44, Strata AG + GG
[45] = hCV2230606 rs13268 FBLN1, Strata AA
[46] = hCV2230606 rs13268 FBLN1, Strata GA + GG

## CC[C@H](C)C(=O)O[C@H]1C[C@H](O)C=C2C=C[C@H](C)[C@H](CC[C@@H](O)C[C@@H](O)CC(=O)O)[C@H]21 [pravastatin]
[1]
  EVENTS (Pravastatin arm): 9
  NONEVENT (Pravastatin arm): 59
[2]
  EVENTS (Pravastatin arm): 127
  NONEVENT (Pravastatin arm): 1203
[3]
  EVENTS (Pravastatin arm): 88
  NONEVENT (Pravastatin arm): 713
hCV1239369 rs275982, strata CC
  EVENTS (Pravastatin arm): 48
  NONEVENT (Pravastatin arm): 552
[4]
  EVENTS (Pravastatin arm): 10
  NONEVENT (Pravastatin arm): 151
[5]
  EVENTS (Pravastatin arm): 123
  NONEVENT (Pravastatin arm): 1138
[6]
  EVENTS (Pravastatin arm): 92
  NONEVENT (Pravastatin arm): 839
[7]
  EVENTS (Pravastatin arm): 40
  NONEVENT (Pravastatin arm): 450
hCV1323634 rs287475, Strata CC
  EVENTS (Pravastatin arm): 30
  NONEVENT (Pravastatin arm): 229
[8]
  EVENTS (Pravastatin arm): 106
  NONEVENT (Pravastatin arm): 1034
hCV1323669 rs287354, strata AA
  EVENTS (Pravastatin arm): 32
  NONEVENT (Pravastatin arm): 244
[9]
  EVENTS (Pravastatin arm): 104
  NONEVENT (Pravastatin arm): 1023
[10]
  EVENTS (Pravastatin arm): 21
  NONEVENT (Pravastatin arm): 322
[11]
  EVENTS (Pravastatin arm): 111
  NONEVENT (Pravastatin arm): 964
[12]
  EVENTS (Pravastatin arm): 97
  NONEVENT (Pravastatin arm): 851
[13]
  EVENTS (Pravastatin arm): 36
  NONEVENT (Pravastatin arm): 434
[14]
  EVENTS (Pravastatin arm): 10
  NONEVENT (Pravastatin arm): 69
[15]
  EVENTS (Pravastatin arm): 33
  NONEVENT (Pravastatin arm): 421
[16]
  EVENTS (Pravastatin arm): 90
  NONEVENT (Pravastatin arm): 799
[17]
  EVENTS (Pravastatin arm): 129
  NONEVENT (Pravastatin arm): 1159
[18]
  EVENTS (Pravastatin arm): 7
  NONEVENT (Pravastatin arm): 103
[19]
  EVENTS (Pravastatin arm): 120
  NONEVENT (Pravastatin arm): 1076
[20]
  EVENTS (Pravastatin arm): 16
  NONEVENT (Pravastatin arm): 185
[21]
  EVENTS (Pravastatin arm): 116
  NONEVENT (Pravastatin arm): 1073
[22]
  EVENTS (Pravastatin arm): 16
  NONEVENT (Pravastatin arm): 212
[23]
  EVENTS (Pravastatin arm): 16
  NONEVENT (Pravastatin arm): 212
[24]
  EVENTS (Pravastatin arm): 117
  NONEVENT (Pravastatin arm): 1076
[25]
  EVENTS (Pravastatin arm): 34
  NONEVENT (Pravastatin arm): 396
[26]
  EVENTS (Pravastatin arm): 99
  NONEVENT (Pravastatin arm): 892
[27]
  EVENTS (Pravastatin arm): 122
  NONEVENT (Pravastatin arm): 1141
[28]
  EVENTS (Pravastatin arm): 11
  NONEVENT (Pravastatin arm): 148
[29]
  EVENTS (Pravastatin arm): 57
  NONEVENT (Pravastatin arm): 600
[30]
  EVENTS (Pravastatin arm): 75
  NONEVENT (Pravastatin arm): 662
[31]
  EVENTS (Pravastatin arm): 117
  NONEVENT (Pravastatin arm): 1119
[32]
  EVENTS (Pravastatin arm): 18
  NONEVENT (Pravastatin arm): 142
[33]
  EVENTS (Pravastatin arm): 121
  NONEVENT (Pravastatin arm): 1174
[34]
  EVENTS (Pravastatin arm): 12
  NONEVENT (Pravastatin arm): 114
[35]
  EVENTS (Pravastatin arm): 18
  NONEVENT (Pravastatin arm): 82
[36]
  EVENTS (Pravastatin arm): 114
  NONEVENT (Pravastatin arm): 1204
[37]
  EVENTS (Pravastatin arm): 2
  NONEVENT (Pravastatin arm): 47
[38]
  EVENTS (Pravastatin arm): 134
  NONEVENT (Pravastatin arm): 1216
[39]
  EVENTS (Pravastatin arm): 75
  NONEVENT (Pravastatin arm): 754
[40]
  EVENTS (Pravastatin arm): 57
  NONEVENT (Pravastatin arm): 528
[41]
  EVENTS (Pravastatin arm): 44
  NONEVENT (Pravastatin arm): 275
[42]
  EVENTS (Pravastatin arm): 92
  NONEVENT (Pravastatin arm): 989
[43]
  EVENTS (Pravastatin arm): 16
  NONEVENT (Pravastatin arm): 125
[44]
  EVENTS (Pravastatin arm): 117
  NONEVENT (Pravastatin arm): 1167
hCV2221541 rs739161, strata CC
  EVENTS (Pravastatin arm): 7
  NONEVENT (Pravastatin arm): 121
hCV2221541 rs739161, strata TC
  EVENTS (Pravastatin arm): 55
  NONEVENT (Pravastatin arm): 492
hCV2221541 rs739161, strata TT
  EVENTS (Pravastatin arm): 74
  NONEVENT (Pravastatin arm): 649
[45]
  EVENTS (Pravastatin arm): 124
  NONEVENT (Pravastatin arm): 1224
[46]
  EVENTS (Pravastatin arm): 9
  NONEVENT (Pravastatin arm): 62
hCV2276802 rs381418 GBA, Strata AA
  EVENTS (Pravastatin arm): 33
